Data from the supplement of paper PMC5355238.
Counter-ions that a name gives are not always drawn. Some of the results follow. Most values lie at the level of the controls, where differences are scatter.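 Reh is a human leukemia cell line; the read-out is the median γH2AX antibody signal in S-phase cells by flow cytometry, with the score counting standard deviations from the median difference of each paired set of plates. Scores above 2.5 were called candidate hits, while scores below -2 mark compounds that lowered the MK1775-induced damage.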

What follows are compounds tested on Reh (assay: Z' of S-phase gammaH2AX difference (drug + MK1775 minus drug alone) (Z-score); higher = stronger synergistic S-phase DNA damage with MK1775). Conditions: MK1775 concentration 400 nM; first compound 10 µM; 4 h.

Compound | Z' of S-phase gammaH2AX difference (Z-score)
CCCCCCCCCCCCCCCCCC(=O)NCC(COP(=O)([O-])OCC[N+](C)(C)C)OCC (racemic) [rac-2-Ethoxy-3-octadecanamido-1-propylphosphocholine] + C=CCn1c(=O)c2cnc(Nc3ccc(N4CCN(C)CC4)cc3)nc2n1-c1cccc(C(C)(C)O)n1 [MK1775] | inactive: -0.163
C=CCn1c(=O)c2cnc(Nc3ccc(N4CCN(C)CC4)cc3)nc2n1-c1cccc(C(C)(C)O)n1 + C=CCn1c(=O)c2cnc(Nc3ccc(N4CCN(C)CC4)cc3)nc2n1-c1cccc(C(C)(C)O)n1 [MK1775] | inactive: 0.394
CC(=O)OCC1=C(C(=O)O)N2C(=O)[C@@H](NC(=O)Cc3cccs3)[C@H]2SC1 [Cephalothin sodium] + C=CCn1c(=O)c2cnc(Nc3ccc(N4CCN(C)CC4)cc3)nc2n1-c1cccc(C(C)(C)O)n1 [MK1775] | inactive: -0.351
O=C1CCC(N2C(=O)c3ccccc3C2=O)C(=O)N1 (stereo not drawn) [(?)-Thalidomide] + C=CCn1c(=O)c2cnc(Nc3ccc(N4CCN(C)CC4)cc3)nc2n1-c1cccc(C(C)(C)O)n1 [MK1775] | inactive: -0.591
CNCCCN1c2ccccc2CCc2ccccc21 [Desipramine hydrochloride] + C=CCn1c(=O)c2cnc(Nc3ccc(N4CCN(C)CC4)cc3)nc2n1-c1cccc(C(C)(C)O)n1 [MK1775] | inactive: 0.245
CCC(C)n1ncn(-c2ccc(N3CCN(c4ccc(OCC5COC(Cn6cncn6)(c6ccc(Cl)cc6Cl)O5)cc4)CC3)cc2)c1=O (stereo not drawn) [Itraconazole (Sporanox)] + C=CCn1c(=O)c2cnc(Nc3ccc(N4CCN(C)CC4)cc3)nc2n1-c1cccc(C(C)(C)O)n1 [MK1775] | inactive: -0.00665
CC(N)C(=O)OC(C)(C)Cc1ccc(Cl)cc1 (stereo not drawn) [Alaproclate hydrochloride] + C=CCn1c(=O)c2cnc(Nc3ccc(N4CCN(C)CC4)cc3)nc2n1-c1cccc(C(C)(C)O)n1 [MK1775] | inactive: -0.14
CN(CCOc1ccc(C[C@H](Nc2ccccc2C(=O)c2ccccc2)C(=O)O)cc1)c1ccccn1 + C=CCn1c(=O)c2cnc(Nc3ccc(N4CCN(C)CC4)cc3)nc2n1-c1cccc(C(C)(C)O)n1 [MK1775] | inactive: 2.29
COC(=O)C1=C(C)NC(C)=C(C(=O)OCCN(C)Cc2ccccc2)C1c1cccc([N+](=O)[O-])c1 (stereo not drawn) [Nicardipine hydrochloride] + C=CCn1c(=O)c2cnc(Nc3ccc(N4CCN(C)CC4)cc3)nc2n1-c1cccc(C(C)(C)O)n1 [MK1775] | inactive: 1.64
Cc1ccccc1CNc1ncnc2c1ncn2[C@@H]1O[C@H](CO)[C@@H](O)[C@H]1O [Metrifudil] + C=CCn1c(=O)c2cnc(Nc3ccc(N4CCN(C)CC4)cc3)nc2n1-c1cccc(C(C)(C)O)n1 [MK1775] | inactive: 1.8
COc1ccc(C2CC(c3ccccc3)=NN2c2ccc(S(N)(=O)=O)cc2)cc1 (stereo not drawn) + C=CCn1c(=O)c2cnc(Nc3ccc(N4CCN(C)CC4)cc3)nc2n1-c1cccc(C(C)(C)O)n1 [MK1775] | inactive: -0.0569
CCCC(=O)[O-].[Na+] [Sodium butyrate] + C=CCn1c(=O)c2cnc(Nc3ccc(N4CCN(C)CC4)cc3)nc2n1-c1cccc(C(C)(C)O)n1 [MK1775] | inactive: -0.39
Cc1cc(Nc2cc(N3CCN(C)CC3)nc(/C=C/c3ccccc3)n2)n[nH]1 + C=CCn1c(=O)c2cnc(Nc3ccc(N4CCN(C)CC4)cc3)nc2n1-c1cccc(C(C)(C)O)n1 [MK1775] | inactive: -0.57
CC1(C)CNc2cc(NC(=O)c3cccnc3NCc3ccncc3)ccc21 [Motesanib Diphosphate] + C=CCn1c(=O)c2cnc(Nc3ccc(N4CCN(C)CC4)cc3)nc2n1-c1cccc(C(C)(C)O)n1 [MK1775] | inactive: -0.617
CC(C)NCC(O)c1ccc(O)c(O)c1 (single isomer, unassigned; (-)) [(-)-Isoproterenol hydrochloride] + C=CCn1c(=O)c2cnc(Nc3ccc(N4CCN(C)CC4)cc3)nc2n1-c1cccc(C(C)(C)O)n1 [MK1775] | inactive: 0.279
Cc1ccccc1C(OCCN(C)C)c1ccccc1 (stereo not drawn) [Orphenadrine hydrochloride] + C=CCn1c(=O)c2cnc(Nc3ccc(N4CCN(C)CC4)cc3)nc2n1-c1cccc(C(C)(C)O)n1 [MK1775] | inactive: 1.03
N=C(N)NCCCCN [Agmatine sulfate] + C=CCn1c(=O)c2cnc(Nc3ccc(N4CCN(C)CC4)cc3)nc2n1-c1cccc(C(C)(C)O)n1 [MK1775] | inactive: -0.571
CCc1cc(-c2n[nH]c(C)c2-c2ccc3c(c2)OCCO3)c(O)cc1O + C=CCn1c(=O)c2cnc(Nc3ccc(N4CCN(C)CC4)cc3)nc2n1-c1cccc(C(C)(C)O)n1 [MK1775] | inactive: 0.178
COc1ncc(-c2ccc3nccc(-c4ccnnc4)c3c2)cc1NS(=O)(=O)c1ccc(F)cc1F + C=CCn1c(=O)c2cnc(Nc3ccc(N4CCN(C)CC4)cc3)nc2n1-c1cccc(C(C)(C)O)n1 [MK1775] | inactive: -0.864
CCCCNc1ccc(C(=O)OCCN(C)C)cc1 [Tetracaine hydrochloride] + C=CCn1c(=O)c2cnc(Nc3ccc(N4CCN(C)CC4)cc3)nc2n1-c1cccc(C(C)(C)O)n1 [MK1775] | inactive: -0.226
COc1ccc(NC(=O)c2ccc(-c3ccc(-c4noc(C)n4)cc3C)cc2)cc1N1CCN(C)CC1 + C=CCn1c(=O)c2cnc(Nc3ccc(N4CCN(C)CC4)cc3)nc2n1-c1cccc(C(C)(C)O)n1 [MK1775] | inactive: 0.165
CCCCCOC(=O)Nc1nc(=O)n([C@@H]2O[C@H](C)[C@@H](O)[C@H]2O)cc1F [Capecitabine (Xeloda)] + C=CCn1c(=O)c2cnc(Nc3ccc(N4CCN(C)CC4)cc3)nc2n1-c1cccc(C(C)(C)O)n1 [MK1775] | inactive: -0.15
COc1ccccc1N1CCN(CCCCNC(=O)c2ccc3ccccc3c2)CC1 + C=CCn1c(=O)c2cnc(Nc3ccc(N4CCN(C)CC4)cc3)nc2n1-c1cccc(C(C)(C)O)n1 [MK1775] | inactive: 0.22

Laid out differently: results already given.
Compound	Z' of S-phase gammaH2AX difference (Z-score)
Cc1cc(Nc2cc(N3CCN(C)CC3)nc(/C=C/c3ccccc3)n2)n[nH]1 + C=CCn1c(=O)c2cnc(Nc3ccc(N4CCN(C)CC4)cc3)nc2n1-c1cccc(C(C)(C)O)n1 [MK1775]	inactive: -0.57
CC1(C)CNc2cc(NC(=O)c3cccnc3NCc3ccncc3)ccc21 [Motesanib Diphosphate] + C=CCn1c(=O)c2cnc(Nc3ccc(N4CCN(C)CC4)cc3)nc2n1-c1cccc(C(C)(C)O)n1 [MK1775]	inactive: -0.617
